Reference: PubChem BioAssay AID1053209 (Peter MacCallum Cancer Centre, 2014)
Aim: 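Knock-downs that sensitise mouse osteosarcoma cells to doxorubicin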 (follow-up of hits). Cell system: mouse primary osteosarcoma cells. Knock-down reagent: single siRNA against mouse genes, 25 nM (text also states 40 nM). Time to read-out: about 120 h (48 h before drug, then 72 h with drug). Conditions: doxorubicin 100 nM (about IC30-40), added 48 h after transfection, for 72 h. Read-out: 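Viability measured by ATP luminescence with and without doxorubicin, each replicate scaled to non-targeting siRNA NT1, averaged over two replicates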. Scale: viability with doxorubicin, vs NT1: higher = more viable cells under doxorubicin; viability ratio, doxorubicin over no drug: higher = less sensitisation to doxorubicin; viability without drug, vs NT1: higher = more viable cells without drug. Rule for the call: 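Active when doxorubicin viability is at most 0.7 of NT1 and drug-free viability lies between 0.7 and 1.1, class LC dox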.
The deposit covers about 1,580 reagents; shown is an unselected part. 207 of all reagents (13%) were called active. 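Rows are single siRNAs; four siRNAs per gene were tested, a gene counting as confirmed only when at least two agree.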 Reagents against one gene are numbered here. No sequences are given here.

target gene,reagent no.,combined effect class,"viability with doxorubicin, vs NT1","viability ratio, doxorubicin over no drug","viability without drug, vs NT1",call
Mmd2 (monocyte to macrophage differentiation-associated 2),1,normal viability with and without drug,1,0.98,1.02,inactive
Mmd2 (monocyte to macrophage differentiation-associated 2),2,normal viability with and without drug,0.94,0.93,1.01,inactive
Mmd2 (monocyte to macrophage differentiation-associated 2),3,normal viability with and without drug,0.96,0.91,1.05,inactive
Mmd2 (monocyte to macrophage differentiation-associated 2),4,normal viability with and without drug,1.04,0.95,1.09,inactive
Afap1l1 (actin filament associated protein 1-like 1),1,high viability with and without drug,1.12,0.98,1.14,inactive
Afap1l1 (actin filament associated protein 1-like 1),2,normal viability with and without drug,1.08,1.01,1.07,inactive
Afap1l1 (actin filament associated protein 1-like 1),3,normal viability with and without drug,0.88,1,0.88,inactive
Afap1l1 (actin filament associated protein 1-like 1),4,high viability only with doxorubicin,1.1,1.1,1,inactive
Kmt5a (lysine methyltransferase 5A),1,normal viability with and without drug,0.83,0.91,0.91,inactive
Kmt5a (lysine methyltransferase 5A),2,normal viability with and without drug,0.9,1,0.9,inactive
Kmt5a (lysine methyltransferase 5A),3,low viability with and without drug,0.25,0.54,0.46,inactive
Kmt5a (lysine methyltransferase 5A),4,normal viability with and without drug,1.01,0.98,1.03,inactive
"Sf3a2 (splicing factor 3a, subunit 2)",1,low viability only with doxorubicin; normal without drug,0.58,0.69,0.84,active
"Sf3a2 (splicing factor 3a, subunit 2)",2,low viability with and without drug,0.23,0.37,0.62,inactive
"Sf3a2 (splicing factor 3a, subunit 2)",3,low viability only with doxorubicin; normal without drug,0.23,0.29,0.78,active
"Sf3a2 (splicing factor 3a, subunit 2)",4,low viability only with doxorubicin; normal without drug,0.48,0.63,0.76,active
Rrm2 (ribonucleotide reductase M2),1,low viability with and without drug,0.29,0.44,0.66,inactive
Rrm2 (ribonucleotide reductase M2),2,low viability with and without drug,0.17,0.34,0.5,inactive
Rrm2 (ribonucleotide reductase M2),3,low viability only with doxorubicin; normal without drug,0.26,0.35,0.74,active
Rrm2 (ribonucleotide reductase M2),4,low viability with and without drug,0.12,0.24,0.51,inactive
Pik3cb,1,normal viability with and without drug,0.9,1,0.9,inactive
Pik3cb,2,high viability only with doxorubicin,1.1,1.12,0.98,inactive
Pik3cb,3,normal viability with and without drug,1.07,1.03,1.04,inactive
Pik3cb,4,normal viability with and without drug,1.02,1.11,0.92,inactive
"Adarb1 (adenosine deaminase, RNA-specific, B1)",1,normal viability with and without drug,0.93,0.9,1.03,inactive
"Adarb1 (adenosine deaminase, RNA-specific, B1)",2,normal viability with and without drug,0.97,0.95,1.02,inactive
"Adarb1 (adenosine deaminase, RNA-specific, B1)",3,normal viability with and without drug,0.78,0.89,0.88,inactive
"Adarb1 (adenosine deaminase, RNA-specific, B1)",4,high viability only with doxorubicin,1.13,1.07,1.06,inactive
Syt10 (synaptotagmin X),1,normal viability with and without drug,1,1.05,0.95,inactive
Syt10 (synaptotagmin X),2,normal viability with and without drug,1.08,1.13,0.96,inactive
Syt10 (synaptotagmin X),3,normal viability with and without drug,0.94,0.94,1,inactive
Syt10 (synaptotagmin X),4,normal viability with and without drug,1.06,1.02,1.04,inactive
Rcor3 (REST corepressor 3),1,normal viability with and without drug,1.01,1.01,1,inactive
Rcor3 (REST corepressor 3),2,low viability only with doxorubicin; normal without drug,0.66,0.73,0.91,active
Rcor3 (REST corepressor 3),3,normal viability with and without drug,1.09,1.18,0.92,inactive
Rcor3 (REST corepressor 3),4,normal viability with and without drug,1.08,1.1,0.98,inactive
Adcy2 (adenylate cyclase 2),1,normal viability with and without drug,1.04,0.98,1.06,inactive
Adcy2 (adenylate cyclase 2),2,normal viability with and without drug,0.95,1.04,0.91,inactive
Adcy2 (adenylate cyclase 2),3,normal viability with and without drug,0.88,0.81,1.08,inactive
Adcy2 (adenylate cyclase 2),4,normal viability with and without drug,1.02,1.02,1,inactive

Targets above whose target name starts with A or a:
target gene,reagent no.,combined effect class,"viability with doxorubicin, vs NT1","viability ratio, doxorubicin over no drug","viability without drug, vs NT1",call
Afap1l1 (actin filament associated protein 1-like 1),1,high viability with and without drug,1.12,0.98,1.14,inactive
Afap1l1 (actin filament associated protein 1-like 1),2,normal viability with and without drug,1.08,1.01,1.07,inactive
Afap1l1 (actin filament associated protein 1-like 1),3,normal viability with and without drug,0.88,1,0.88,inactive
Afap1l1 (actin filament associated protein 1-like 1),4,high viability only with doxorubicin,1.1,1.1,1,inactive
"Adarb1 (adenosine deaminase, RNA-specific, B1)",1,normal viability with and without drug,0.93,0.9,1.03,inactive
"Adarb1 (adenosine deaminase, RNA-specific, B1)",2,normal viability with and without drug,0.97,0.95,1.02,inactive
"Adarb1 (adenosine deaminase, RNA-specific, B1)",3,normal viability with and without drug,0.78,0.89,0.88,inactive
"Adarb1 (adenosine deaminase, RNA-specific, B1)",4,high viability only with doxorubicin,1.13,1.07,1.06,inactive
Adcy2 (adenylate cyclase 2),1,normal viability with and without drug,1.04,0.98,1.06,inactive
Adcy2 (adenylate cyclase 2),2,normal viability with and without drug,0.95,1.04,0.91,inactive
Adcy2 (adenylate cyclase 2),3,normal viability with and without drug,0.88,0.81,1.08,inactive
Adcy2 (adenylate cyclase 2),4,normal viability with and without drug,1.02,1.02,1,inactive

Next records follow:
target gene,reagent no.,combined effect class,"viability with doxorubicin, vs NT1","viability ratio, doxorubicin over no drug","viability without drug, vs NT1",call
"Psmb5 (proteasome (prosome, macropain) subunit, beta type 5)",1,normal viability with and without drug,0.9,1.11,0.81,inactive
"Psmb5 (proteasome (prosome, macropain) subunit, beta type 5)",2,low viability with and without drug,0.19,0.37,0.52,inactive
"Psmb5 (proteasome (prosome, macropain) subunit, beta type 5)",3,low viability with and without drug,0.13,0.34,0.38,inactive
"Psmb5 (proteasome (prosome, macropain) subunit, beta type 5)",4,low viability with and without drug,0.17,0.39,0.44,inactive
Rpl6 (ribosomal protein L6),1,low viability with and without drug,0.36,0.64,0.56,inactive
Rpl6 (ribosomal protein L6),2,low viability with and without drug,0.27,0.52,0.52,inactive
Rpl6 (ribosomal protein L6),3,normal viability with and without drug,1,1.06,0.94,inactive
Rpl6 (ribosomal protein L6),4,low viability with and without drug,0.26,0.65,0.4,inactive
Mrpl48 (mitochondrial ribosomal protein L48),1,normal viability with and without drug,1.09,1.3,0.84,inactive
Mrpl48 (mitochondrial ribosomal protein L48),2,low viability only with doxorubicin; normal without drug,0.68,0.74,0.92,active
Mrpl48 (mitochondrial ribosomal protein L48),3,normal viability with and without drug,0.9,0.92,0.98,inactive
Mrpl48 (mitochondrial ribosomal protein L48),4,high viability only with doxorubicin,1.1,1.06,1.04,inactive
Rps29 (ribosomal protein S29),1,low viability with and without drug,0.24,0.83,0.29,inactive
Rps29 (ribosomal protein S29),2,low viability with and without drug,0.16,0.48,0.33,inactive
Rps29 (ribosomal protein S29),3,low viability with and without drug,0.13,0.54,0.24,inactive
Rps29 (ribosomal protein S29),4,low viability with and without drug,0.32,0.82,0.39,inactive
Rps6kc1 (ribosomal protein S6 kinase C1),1,normal viability with and without drug,1.04,1.11,0.94,inactive
Rps6kc1 (ribosomal protein S6 kinase C1),2,normal viability with and without drug,0.97,0.99,0.98,inactive
Rps6kc1 (ribosomal protein S6 kinase C1),3,normal viability with and without drug,0.97,1,0.97,inactive
Rps6kc1 (ribosomal protein S6 kinase C1),4,normal viability with and without drug,0.93,0.94,0.99,inactive
"Eif3b (eukaryotic translation initiation factor 3, subunit B)",1,low viability with and without drug,0.45,0.85,0.53,inactive
"Eif3b (eukaryotic translation initiation factor 3, subunit B)",2,low viability with and without drug,0.27,0.59,0.46,inactive
"Eif3b (eukaryotic translation initiation factor 3, subunit B)",3,low viability with and without drug,0.45,0.69,0.65,inactive
"Eif3b (eukaryotic translation initiation factor 3, subunit B)",4,low viability only with doxorubicin; normal without drug,0.4,0.56,0.72,active
Rpap3 (RNA polymerase II associated protein 3),1,high viability only with doxorubicin,1.11,1.07,1.04,inactive
Rpap3 (RNA polymerase II associated protein 3),2,normal viability with and without drug,1,1.04,0.96,inactive
Rpap3 (RNA polymerase II associated protein 3),3,normal viability with and without drug,1.04,0.97,1.07,inactive
Rpap3 (RNA polymerase II associated protein 3),4,normal viability with and without drug,0.76,0.86,0.88,inactive
Slc35f5,1,normal viability with and without drug,0.85,0.87,0.98,inactive
Slc35f5,2,normal viability with and without drug,0.97,0.9,1.08,inactive
Slc35f5,3,high viability only without drug,0.88,0.77,1.15,inactive
Slc35f5,4,normal viability with and without drug,0.9,0.92,0.98,inactive
"Copb1 (coatomer protein complex, subunit beta 1)",1,low viability with and without drug,0.06,0.29,0.21,inactive
"Copb1 (coatomer protein complex, subunit beta 1)",2,normal viability with and without drug,1,1.05,0.95,inactive
"Copb1 (coatomer protein complex, subunit beta 1)",3,normal viability with and without drug,1.09,1.12,0.97,inactive
"Copb1 (coatomer protein complex, subunit beta 1)",4,low viability with and without drug,0.08,0.5,0.16,inactive
